Source: patent US12291494B2, “Methods of treating fibrosis” (Nogra Pharma Limited, priority 2012, dated 2025)
At least one structure is not confirmed: it was looked up by name or label, or the drawing left a doubt.

Tested on: Male C57bl6 mice
Assay: CCl4-induced liver fibrosis: histology (Metavir score)
Type: in vivo
Settings: compound 34 30 mM 200 uL oral daily, JWH-133 3 mg/kg i.p. daily, ca. 5 weeks, control F0, CCl4 F3
Experimental: Liver fibrosis was induced in Male C57bl6 mice (Charles River, l'Arbresle, France) by injection of carbon tetrachloride (CCl4). The C57bl6 mice weighed 22-25 g and were maintained in laboratory conditions for 1 week before experiment. Animals were housed 5 per cage with food and water available ad libitum.
The effectiveness of compound 34 (specific ligand of PPARg) as compared to JWH-133 (anti-fibrogenic agent) was evaluated. Compound 34 was administered orally in combination with CCl4 injections for ca. 5 weeks. Compound 34 was dosed daily at 200 uL of a 30 mM solution. JWH-133 was administered daily via intraperitoneal injections at 3 mg/kg (dose volume=100 uL). The model of liver fibrosis is induced by chronic exposure to increased dosages of CCl4 for 5 weeks. The first week, mice received an intraperitoneal injection of CCl4, resuspended in olive oil, at the dosage of 80 μl/kg of mice body weight twice a week. […]
The formalin-fixed liver tissue was processed and 5 μm thick paraffin sections were stained with hematoxylin and eosin (H&E) and Picrosirius red staining (specific coloration for collagen in tissue sections) to evaluate the degree of fibrosis in the liver. Each section was analyzed blindly by 3 different experimenters for the quantification of the degree of fibrosis for each lobe of the liver (5) using the Metavir score (see FIG. 2A for Metavir Score chart). […]

CCCC(C)(C)c1ccc2c(c1)OC(C)(C)[C@@H]1CC=C(C)C[C@@H]21 [JWH-133]
Metavir score (FIG. 2B): F2
